Results taken from paper PMC8136785, “Short DNA/RNA heteroduplex oligonucleotide interacting proteins are key regulators of target gene silencing”.

Target: T1, carbonic anhydrase 8 (CA8) (UniProt P28651)
T1 sequence: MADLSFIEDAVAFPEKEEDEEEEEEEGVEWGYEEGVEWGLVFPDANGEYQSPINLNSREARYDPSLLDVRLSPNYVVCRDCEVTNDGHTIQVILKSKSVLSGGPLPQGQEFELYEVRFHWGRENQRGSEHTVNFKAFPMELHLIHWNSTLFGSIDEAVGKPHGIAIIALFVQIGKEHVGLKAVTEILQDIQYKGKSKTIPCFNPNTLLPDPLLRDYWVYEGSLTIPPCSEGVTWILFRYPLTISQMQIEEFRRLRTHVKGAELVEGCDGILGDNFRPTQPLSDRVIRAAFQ
Test: affinity purification with mass spectrometry; immunoprecipitation with the CA8 antibody in nonionic detergent NP-40 buffer; precipitate resolved on SDS-PAGE, silver staining, specific bands analysed by mass spectrometry

binding: binds
Substance: tropomyosin 3 (TPM3)

Results are given in words; binding and its absence hold for the method and conditions named. In cells and extracts the contact can be indirect. Here binding means that the protein was enriched with, or labelled near, the bait; the list need not be complete.
